Assay: Body weight of MCT-modelled PAH rats under intragastric administration
Type: in vivo, Sprague-Dawley rats
Conditions: Day 14 = start of intragastric dosing, mean ± spread

Row | SMILES | Body weight on Day 14 (g) (3 mg/kg/day group) | Body weight on Day 14 (g) (6 mg/kg/day group) | Body weight on Day 14 (3 mg/kg/day group) [g]
1 | CCCCC[C@H](O)CC[C@@H]1[C@H]2Cc3cccc(OCC(=O)O)c3C[C@H]2C[C@H]1O [Compound C1, Treprostinil sodium 5.5-hydrate] | 430+34.15 g | 413+15.81 g | –
2 | CCCCC[C@H](O)CC[C@H]1[C@H](O)[C@@H](CC)[C@@H]2Cc3c(cccc3OCC(=O)O)C[C@@H]21 [Compound 1] | – | – | 428 ± 29.90
